Measurements taken from PMC5634629.
No constants are given. Whether binding was seen depends on the method and setting. In cells and extracts the contact can be indirect. Some binding calls cover weakened binding; strength is not graded here. For some of these results: Where a sequence is shown, tags or fusion partners need not be part of it. Values belong to the substance of their own block, whether it stands above or below them.

Protein sequences, listed by entry. Tags and fused reporters are not part of them.
UniProt O14649: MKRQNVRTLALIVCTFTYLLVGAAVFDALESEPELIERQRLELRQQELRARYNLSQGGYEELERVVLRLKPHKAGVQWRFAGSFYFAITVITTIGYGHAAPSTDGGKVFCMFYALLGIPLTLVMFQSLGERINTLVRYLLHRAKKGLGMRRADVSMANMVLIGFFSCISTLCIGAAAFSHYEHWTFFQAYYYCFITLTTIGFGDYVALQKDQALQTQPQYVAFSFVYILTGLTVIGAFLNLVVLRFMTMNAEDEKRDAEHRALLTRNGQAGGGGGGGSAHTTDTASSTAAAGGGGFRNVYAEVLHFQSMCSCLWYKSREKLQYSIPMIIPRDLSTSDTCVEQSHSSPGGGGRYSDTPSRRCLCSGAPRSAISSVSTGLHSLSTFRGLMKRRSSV
UniProt Q9H427: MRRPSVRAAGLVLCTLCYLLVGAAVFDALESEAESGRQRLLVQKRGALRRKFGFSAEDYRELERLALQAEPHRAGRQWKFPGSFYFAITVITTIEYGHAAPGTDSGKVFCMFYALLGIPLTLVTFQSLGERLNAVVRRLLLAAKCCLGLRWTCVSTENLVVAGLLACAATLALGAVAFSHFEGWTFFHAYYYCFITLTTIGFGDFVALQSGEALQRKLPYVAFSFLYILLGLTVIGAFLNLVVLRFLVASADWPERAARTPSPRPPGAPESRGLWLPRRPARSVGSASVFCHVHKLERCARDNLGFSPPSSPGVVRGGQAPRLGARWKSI

Legend:
[1] = target: TASK1-YFP (human) (UniProt O14649); assay: FRET or BRET; acceptor photobleaching FRET (CFP donor, YFP acceptor) in HEK293 cells, confocal microscope; cDNA ratio CFP:YFP 1:1; E_FRET = percent increase in CFP emission after YFP photobleaching
[2] = target: T1, GFP-TALK2 (human) (UniProt Q96T54); assay: co-IP; HEK293 lysates (IP Lysis/Wash Buffer, 1% NP-40, 0.15 M NaCl, pH 7.4) precipitated with anti-GFP antibody on resin, overnight at 4°C; blotted with anti-TASK1 antibody
T1 sequence: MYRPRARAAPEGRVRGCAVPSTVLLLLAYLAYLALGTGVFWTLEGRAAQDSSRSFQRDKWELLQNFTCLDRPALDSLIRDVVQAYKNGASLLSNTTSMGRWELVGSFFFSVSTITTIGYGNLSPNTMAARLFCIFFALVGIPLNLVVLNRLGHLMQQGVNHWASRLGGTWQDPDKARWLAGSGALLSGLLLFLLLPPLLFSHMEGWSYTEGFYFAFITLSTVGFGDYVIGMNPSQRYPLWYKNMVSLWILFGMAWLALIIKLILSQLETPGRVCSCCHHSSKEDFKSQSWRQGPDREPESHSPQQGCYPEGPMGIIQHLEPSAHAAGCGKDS

[3] = target: T2, VN-TALK2 (human) (UniProt Q96T54); assay: split reporter; BiFC in living HEK293 cells co-expressing channels fused to VN173 and VC155 of Venus; Venus fluorescence imaged
T2 sequence: T1 sequence

[4] = target: T3, TALK2-VC (human) (UniProt Q96T54); assay: as above
T3 sequence: T1 sequence

- binding [1]: no binding
Substance: CFP-TASK5 (from UniProt Q9H427 1-330)

- binding [2]: binds
Substance: TASK1 (without any tag) (from UniProt O14649 1-394)

- binding [3]: binds
Substance: TASK1-VC (from UniProt O14649 1-394)

- binding [4]: binds
Substance: VN-TASK1 (from UniProt O14649 1-394)
